Results as given in patent publication US4755526A, “Method of inhibiting aromatase” (Eli Lilly and Company, priority 1984, dated 1988).

Target: T1, aromatase (Rattus norvegicus, UniProt P22443)
T1 construct: ovarian microsomes are obtained from rats treated with pregnant mares serum gonadotropin; from tissue; host or cells: ovarian microsomes of rats treated with pregnant mares serum gonadotropin
T1 sequence (P22443 1-508): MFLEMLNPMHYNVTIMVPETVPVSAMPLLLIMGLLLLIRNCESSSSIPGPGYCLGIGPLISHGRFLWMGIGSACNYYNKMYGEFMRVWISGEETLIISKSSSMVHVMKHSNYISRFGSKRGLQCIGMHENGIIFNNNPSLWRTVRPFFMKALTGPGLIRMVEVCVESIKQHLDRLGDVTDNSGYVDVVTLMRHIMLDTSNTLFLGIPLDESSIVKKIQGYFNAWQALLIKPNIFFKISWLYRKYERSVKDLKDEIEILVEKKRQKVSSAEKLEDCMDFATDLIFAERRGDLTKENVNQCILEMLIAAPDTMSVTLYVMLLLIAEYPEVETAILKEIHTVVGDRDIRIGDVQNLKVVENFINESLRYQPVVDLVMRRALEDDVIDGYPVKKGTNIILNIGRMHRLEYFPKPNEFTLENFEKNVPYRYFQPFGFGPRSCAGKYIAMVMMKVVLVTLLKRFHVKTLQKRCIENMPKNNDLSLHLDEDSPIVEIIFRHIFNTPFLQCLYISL
Assay: Aromatase inhibition in the rat ovarian microsome assay
Type: biochemical
Settings: EC50: concentration required to achieve 50% inhibition of aromatase activity

SMILES: Clc1ccccc1C(c1ccccc1)(c1ccccc1)n1ccnc1 [1-[α-(2-chlorophenyl)diphenylmethyl]imidazole]
- EC50: 89 nM
